Data as given in PubChem BioAssay AID1224830 (NIAID, 2016).
In all, the deposit lists about 18,000 reagents; shown is a part drawn at random. About 2,900 of all reagents (16%) were called active. 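Calls are made per well; low scores hint the gene aids the LPS response, high scores that it dampens it.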 Entries without a mark were called inactive. Reagents against one gene are numbered here. Repeated entries: four replicate wells of each siRNA pool. Reagent sequences are not shown.

Assay: 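Genes whose knock-down alters the TNF-alpha reporter response to LPS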 (primary screen)
Cells: human THP-1 monocytic leukaemia cells, TNF dual-luciferase reporter clone, PMA-differentiated to macrophage-like cells
Knock-down reagent: siRNA pool against human genes, 50 nM
Duration: LPS for 4 h, given about 3 days after siRNA transfection
Treatment: bacterial LPS (TLR4 ligand), 10 ng/ml
Measured: 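Ratio of firefly to renilla light, scaled to the plate median and expressed as a robust z-score per replicate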
Reading the numbers: TNF reporter robust z-score: higher = stronger TNF reporter response to LPS
Hit rule: 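a well is active when its z-score exceeds 2.8 or falls below -1.5; control wells carry no call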

gene symbol | reagent no. | TNF reporter robust z-score
SLC19A2 (GeneID 10560) | 1 | 1.12
SLC19A2 (GeneID 10560) | 1 | 2.22
SLC19A2 (GeneID 10560) | 1 | 1.66
SLC19A2 (GeneID 10560) | 1 | 1.56
ACAD8 (GeneID 27034) | 1 | -0.47
ACAD8 (GeneID 27034) | 1 | -1.24
ACAD8 (GeneID 27034) | 1 | -0.11
ACAD8 (GeneID 27034) | 1 | -0.42
RCC1 (GeneID 1104) | 1 | 2.24
RCC1 (GeneID 1104) | 1 | 1.58
RCC1 (GeneID 1104) | 1 | 2.56
RCC1 (GeneID 1104) | 1 | -0.73
RCC1 (GeneID 1104) | 2 | -0.1
RCC1 (GeneID 1104) | 2 | -0.75
RCC1 (GeneID 1104) | 2 | -0.79
RCC1 (GeneID 1104) | 2 | 0.32
PRR23E (GeneID 285311) | 1 | -0.92
PRR23E (GeneID 285311) | 1 | 0.53
PRR23E (GeneID 285311) | 1 | 2.24
PRR23E (GeneID 285311) | 1 | 0.98
CD200 (GeneID 4345) | 1 | 0.24
CD200 (GeneID 4345) | 1 | 3.16 (active)
CD200 (GeneID 4345) | 1 | 0.68
CD200 (GeneID 4345) | 1 | 1.52
ATG4D (GeneID 84971) | 1 | 0.66
ATG4D (GeneID 84971) | 1 | 1.35
ATG4D (GeneID 84971) | 1 | 0.77
ATG4D (GeneID 84971) | 1 | 1.39
CCKAR (GeneID 886) | 1 | -0.39
CCKAR (GeneID 886) | 1 | 0.76
CCKAR (GeneID 886) | 1 | 0
CCKAR (GeneID 886) | 1 | 0.73
CC2D2A (GeneID 57545) | 1 | -0.11
CC2D2A (GeneID 57545) | 1 | 0.81
CC2D2A (GeneID 57545) | 1 | 0.89
CC2D2A (GeneID 57545) | 1 | -0.27
XCR1 (GeneID 2829) | 1 | -0.65
XCR1 (GeneID 2829) | 1 | -0.24
XCR1 (GeneID 2829) | 1 | -0.98
XCR1 (GeneID 2829) | 1 | -0.13
CLVS1 (GeneID 157807) | 1 | -0.65
CLVS1 (GeneID 157807) | 1 | -0.51
CLVS1 (GeneID 157807) | 1 | -0.66
CLVS1 (GeneID 157807) | 1 | -0.99
MPI (GeneID 4351) | 1 | -0.02
MPI (GeneID 4351) | 1 | 0.24
MPI (GeneID 4351) | 1 | -0.54
MPI (GeneID 4351) | 1 | -0.17
TSHR (GeneID 7253) | 1 | 0.98
TSHR (GeneID 7253) | 1 | 0.12
TSHR (GeneID 7253) | 1 | 0.34
TSHR (GeneID 7253) | 1 | 2.51
OVCH2 (GeneID 341277) | 1 | -0.05
OVCH2 (GeneID 341277) | 1 | 2.07
OVCH2 (GeneID 341277) | 1 | -0.99
ANP32D (GeneID 23519) | 1 | 2.19
ANP32D (GeneID 23519) | 1 | 1.34
ANP32D (GeneID 23519) | 1 | 1.7
ANP32D (GeneID 23519) | 1 | 5.15 (active)
TRAM1 (GeneID 23471) | 1 | 0.41
TRAM1 (GeneID 23471) | 1 | -0.56
TRAM1 (GeneID 23471) | 1 | -0.76
TRAM1 (GeneID 23471) | 1 | -0.82
FAHD1 (GeneID 81889) | 1 | -1.19
FAHD1 (GeneID 81889) | 1 | 1.14
FAHD1 (GeneID 81889) | 1 | -0.26
FAHD1 (GeneID 81889) | 1 | 3.04 (active)
ARMC12 (GeneID 221481) | 1 | 1.51
ARMC12 (GeneID 221481) | 1 | 3.36 (active)
ARMC12 (GeneID 221481) | 1 | 2.26
ARMC12 (GeneID 221481) | 1 | 2.35
CMTM2 (GeneID 146225) | 1 | -0.79
CMTM2 (GeneID 146225) | 1 | 0.19
CMTM2 (GeneID 146225) | 1 | -0.06
CMTM2 (GeneID 146225) | 1 | 0.1
